Test results: publication PMC6630525
These are yes or no findings as the source states them, for the method shown. Binding can be weak; no strength is given.

Legend:
[1] = target: T1, AtNRP1 NT/CT (AtNRP1 residues 14-226) (Arabidopsis thaliana) (UniProt Q9CA59); assay: native gel or EMSA; native polyacrylamide gel; increasing amounts of H2A-H2B dimer titrated into a constant amount (5 µM) of AtNRP1/2 proteins; both purified
T1 sequence: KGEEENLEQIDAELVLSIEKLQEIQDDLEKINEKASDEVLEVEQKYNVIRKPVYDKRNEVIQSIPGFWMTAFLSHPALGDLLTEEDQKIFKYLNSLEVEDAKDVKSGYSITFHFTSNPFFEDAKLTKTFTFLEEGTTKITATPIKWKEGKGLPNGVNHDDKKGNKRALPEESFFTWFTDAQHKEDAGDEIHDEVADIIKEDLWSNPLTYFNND

[2] = target: T2, AtNRP2 NT/CT (AtNRP2 residues 14-223) (Arabidopsis thaliana) (UniProt Q8LC68); assay: as above
T2 sequence: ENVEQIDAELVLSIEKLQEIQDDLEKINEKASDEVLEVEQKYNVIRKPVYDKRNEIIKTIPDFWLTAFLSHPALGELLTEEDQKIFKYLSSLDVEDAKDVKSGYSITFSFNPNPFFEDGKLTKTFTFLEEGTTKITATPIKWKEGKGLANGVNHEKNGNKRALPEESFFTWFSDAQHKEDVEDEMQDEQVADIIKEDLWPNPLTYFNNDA

Arabidopsis thaliana histone H2A-H2B dimer (complex)
binding [1]: binds
binding [2]: binds
